Record: PubChem BioAssay AID602196 (INSERM, 2012)
Purpose: 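Modifiers of cisplatin sensitivity in A549 cells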. Cell system: human A549 lung cancer cells. Reagent: siRNA pair against human genes. Timing: 48 h transfection before cisplatin; time from cisplatin to read-out not stated. Challenge: cisplatin at a dose killing half of control-siRNA cells; exact dose and duration not given. Detection: 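Cisplatin cell death as a shift from the 50% death seen with control siRNA; siRNAs toxic or growth-blocking alone scored 0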. Scale: two-siRNA summed score (-2 to +2): higher = both siRNAs protect from cisplatin killing; -2 means both sensitise; mean protection from cisplatin (shift in death) and protection from cisplatin (shift in death), siRNA C and protection from cisplatin (shift in death), siRNA D: higher = protection from cisplatin killing. Active means: 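siRNAs harmful alone (LDH or WST-1) get 0; others get +1 for less and -1 for more cisplatin killing; genes are active when the two siRNAs give the same sign, summing to ±2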. Calls: active = both siRNAs shift cisplatin killing the same way; inactive = no consistent shift, or siRNA harmful alone.
This is a random part of about 23,000 deposited reagents. Over the whole deposit, 455 (2%) got an active call. 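Active includes both protection and sensitisation; some change values fall well beyond the stated -50 to +50 range.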 Not stated in the record: the amount of reagent.

gene knocked down	two-siRNA summed score (-2 to +2)	mean protection from cisplatin (shift in death) (%)	protection from cisplatin (shift in death), siRNA C (%)	protection from cisplatin (shift in death), siRNA D (%)	Outcome
PLXNA1	0	9.2	-10.3	28.7	inactive
EHD2	0	4.1	2.9	5.3	inactive
DMRTB1	0	1.2	2.8	-0.4	inactive
OR52M1	0	11.1	8.7	13.4	inactive
TCL1A	0	6.6	12	1.3	inactive
TNRC6C	0	-7.8	-9.8	-5.8	inactive
LOC390084	0	10.5	14.9	6.2	inactive
NDUFB1	0	-5.3	4.2	-14.8	inactive
ZFP64	0	-4.8	-0.5	-9.1	inactive
LOC440526	1	10.8	-6.2	27.8	inactive
LOC441497	0	2.4	1.4	3.3	inactive
LOC339162	1	15	5.9	24.1	inactive
CCL23	0	1.7	5.4	-1.9	inactive
VOPP1	0	5.4	-4.3	15.1	inactive
DUSP10	0	1.2	3.8	-1.5	inactive
RASA3	0	6.7	8	5.4	inactive
BST1	-2	-14.4	-16.5	-12.4	active
POPDC3	0	-1.1	-8.8	6.6	inactive
FCMR	0	0.9	0.7	1.1	inactive
HIF1AN	0	13.7	15.8	11.6	inactive
LOC400573	0	3.7	9.3	-1.8	inactive
TTC17	0	1.6	-1.6	4.7	inactive
DOT1L	0	11.2	7	15.4	inactive
SNRPD3	0	-3.4	-8.9	2	inactive
CPZ	-1	-8.6	3.1	-20.4	inactive
LTBR	1	25.7	27.6	23.9	inactive
LOC344167	0	-3.4	-10.8	3.9	inactive
MLXIP	0	6.4	2.3	10.4	inactive
HOXB9	0	11.2	-15.5	38	inactive
CDC42EP4	0	5.8	6.3	5.2	inactive
FAAP24	0	6.5	11.1	1.9	inactive
LOC391298	1	3.9	-13.2	20.9	inactive
LINC02288	1	16.8	15.7	18	inactive
SUGT1P1	0	-6.4	-8	-4.8	inactive
TF	0	19.1	22	16.2	inactive
CCNA2	0	3.4	-2	8.8	inactive
ERC1	-1	-15.1	-20.7	-9.5	inactive

Called active (from the list above):
gene knocked down	two-siRNA summed score (-2 to +2)	mean protection from cisplatin (shift in death) (%)	protection from cisplatin (shift in death), siRNA C (%)	protection from cisplatin (shift in death), siRNA D (%)	Outcome
BST1	-2	-14.4	-16.5	-12.4	active

The list goes on.
gene knocked down	two-siRNA summed score (-2 to +2)	mean protection from cisplatin (shift in death) (%)	protection from cisplatin (shift in death), siRNA C (%)	protection from cisplatin (shift in death), siRNA D (%)	Outcome
MBTD1	0	7.9	4.6	11.1	inactive
LOC150297	0	7.9	13.6	2.1	inactive
LOC440302	0	9.8	11.8	7.9	inactive
ARRDC2	0	13.5	11.9	15.1	inactive
AMDHD2	0	-0.9	3.5	-5.3	inactive
AP5B1	0	1.3	-9.5	12.1	inactive
TNFRSF13B	0	3.2	8.7	-2.3	inactive
LOC389100	1	6.8	-3.2	16.8	inactive
LOC440183	1	8.9	18.4	-0.7	inactive
HAS2	0	-1.4	-10.7	8	inactive
PLEKHH1	0	-0.4	5.4	-6.2	inactive
FAM177A1	0	8.1	10.5	5.7	inactive
POLM	0	-9.3	-21.7	3.1	inactive
MGC21874	0	8.6	16.9	0.3	inactive
STAT5B	1	7.9	0.8	15	inactive
LOC440172	0	7.5	11.3	3.7	inactive
LOC285588	2	20.7	21	20.4	active
CD99	0	7.8	24.4	-8.9	inactive
FAR2P1	0	5.6	-3.4	14.5	inactive
EQTN	0	13.2	16.9	9.6	inactive
